The experiment has as its target T1, BCAT2 (human (endogenous in PCa cells)) (UniProt O15382).
T1 sequence: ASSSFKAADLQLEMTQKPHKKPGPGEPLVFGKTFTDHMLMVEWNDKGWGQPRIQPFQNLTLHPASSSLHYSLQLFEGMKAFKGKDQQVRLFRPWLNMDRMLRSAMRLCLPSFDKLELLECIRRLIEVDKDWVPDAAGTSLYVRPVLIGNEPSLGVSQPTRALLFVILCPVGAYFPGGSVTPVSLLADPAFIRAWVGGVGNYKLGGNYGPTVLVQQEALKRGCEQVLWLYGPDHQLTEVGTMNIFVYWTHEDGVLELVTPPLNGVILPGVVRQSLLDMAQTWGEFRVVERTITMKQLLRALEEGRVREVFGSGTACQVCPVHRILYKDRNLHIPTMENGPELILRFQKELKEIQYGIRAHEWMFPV
The experiment in a line: affinity purification with mass spectrometry; Co-IP of BCAT2 from cell lysate against an IgG control; BCAT2-specific Coomassie-stained gel bands identified on a Q Exactive HF-X.

The chains behind the UniProt entries cited, without tags or fusion partners.
UniProt Q15365: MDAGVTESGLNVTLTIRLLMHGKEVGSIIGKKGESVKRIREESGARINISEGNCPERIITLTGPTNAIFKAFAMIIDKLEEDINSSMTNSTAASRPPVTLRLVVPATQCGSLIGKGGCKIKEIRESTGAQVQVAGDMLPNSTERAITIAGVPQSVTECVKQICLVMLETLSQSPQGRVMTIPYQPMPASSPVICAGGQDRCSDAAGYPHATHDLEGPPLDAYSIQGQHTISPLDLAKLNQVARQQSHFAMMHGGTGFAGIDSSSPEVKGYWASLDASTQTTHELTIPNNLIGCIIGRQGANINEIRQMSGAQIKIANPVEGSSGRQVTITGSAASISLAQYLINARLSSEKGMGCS

These are yes or no findings as the source states them, for the method shown. Binding seen in cells or lysates may run through a third protein. A yes stands for co-enrichment or nearness to the bait. Other partners may have been found.

PCBP1 (from UniProt Q15365 1-356): the binding result was “binds”.

These data come from paper PMC12022009.
